The assay concerns the target T1, Periostin (POSTN), full length, 3xFLAG-tagged (pEB-POSTN-3×flag-Puro) (human) (UniProt Q15063).
T1 sequence: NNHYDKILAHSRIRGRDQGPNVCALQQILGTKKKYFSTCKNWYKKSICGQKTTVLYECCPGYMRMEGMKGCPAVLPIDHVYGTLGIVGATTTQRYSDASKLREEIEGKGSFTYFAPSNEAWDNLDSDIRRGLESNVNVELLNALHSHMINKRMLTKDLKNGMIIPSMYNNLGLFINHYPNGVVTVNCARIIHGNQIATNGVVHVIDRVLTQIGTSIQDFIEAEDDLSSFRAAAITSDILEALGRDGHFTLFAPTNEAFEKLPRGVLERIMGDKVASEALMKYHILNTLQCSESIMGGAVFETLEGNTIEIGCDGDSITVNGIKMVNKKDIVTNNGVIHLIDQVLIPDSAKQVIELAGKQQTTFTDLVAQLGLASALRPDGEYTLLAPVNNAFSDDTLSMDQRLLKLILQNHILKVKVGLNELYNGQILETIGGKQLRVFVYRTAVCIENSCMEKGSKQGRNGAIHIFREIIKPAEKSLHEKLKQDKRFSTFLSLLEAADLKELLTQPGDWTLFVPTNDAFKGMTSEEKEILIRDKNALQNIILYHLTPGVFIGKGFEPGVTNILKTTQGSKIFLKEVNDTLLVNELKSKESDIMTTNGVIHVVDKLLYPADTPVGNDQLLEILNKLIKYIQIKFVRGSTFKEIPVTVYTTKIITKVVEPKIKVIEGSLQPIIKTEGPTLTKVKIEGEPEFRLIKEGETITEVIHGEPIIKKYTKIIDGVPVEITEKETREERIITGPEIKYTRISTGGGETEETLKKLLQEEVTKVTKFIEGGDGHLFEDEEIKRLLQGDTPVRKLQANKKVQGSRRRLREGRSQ
The experiment in a line: co-IP; 293T cells expressing FLAG-tagged POSTN (full length or truncations) with full-length NOTCH1 or NOTCH1-NECD-HA; FLAG or HA pulled down, immunoblot; no co-IP protocol in the methods. Background: In western blotting, separated proteins are transferred to a membrane and probed.

Amino acid sequences for entries named in this document (tags omitted). A change or cut given only in a name is not applied to a line headed by its entry.
UniProt P46531: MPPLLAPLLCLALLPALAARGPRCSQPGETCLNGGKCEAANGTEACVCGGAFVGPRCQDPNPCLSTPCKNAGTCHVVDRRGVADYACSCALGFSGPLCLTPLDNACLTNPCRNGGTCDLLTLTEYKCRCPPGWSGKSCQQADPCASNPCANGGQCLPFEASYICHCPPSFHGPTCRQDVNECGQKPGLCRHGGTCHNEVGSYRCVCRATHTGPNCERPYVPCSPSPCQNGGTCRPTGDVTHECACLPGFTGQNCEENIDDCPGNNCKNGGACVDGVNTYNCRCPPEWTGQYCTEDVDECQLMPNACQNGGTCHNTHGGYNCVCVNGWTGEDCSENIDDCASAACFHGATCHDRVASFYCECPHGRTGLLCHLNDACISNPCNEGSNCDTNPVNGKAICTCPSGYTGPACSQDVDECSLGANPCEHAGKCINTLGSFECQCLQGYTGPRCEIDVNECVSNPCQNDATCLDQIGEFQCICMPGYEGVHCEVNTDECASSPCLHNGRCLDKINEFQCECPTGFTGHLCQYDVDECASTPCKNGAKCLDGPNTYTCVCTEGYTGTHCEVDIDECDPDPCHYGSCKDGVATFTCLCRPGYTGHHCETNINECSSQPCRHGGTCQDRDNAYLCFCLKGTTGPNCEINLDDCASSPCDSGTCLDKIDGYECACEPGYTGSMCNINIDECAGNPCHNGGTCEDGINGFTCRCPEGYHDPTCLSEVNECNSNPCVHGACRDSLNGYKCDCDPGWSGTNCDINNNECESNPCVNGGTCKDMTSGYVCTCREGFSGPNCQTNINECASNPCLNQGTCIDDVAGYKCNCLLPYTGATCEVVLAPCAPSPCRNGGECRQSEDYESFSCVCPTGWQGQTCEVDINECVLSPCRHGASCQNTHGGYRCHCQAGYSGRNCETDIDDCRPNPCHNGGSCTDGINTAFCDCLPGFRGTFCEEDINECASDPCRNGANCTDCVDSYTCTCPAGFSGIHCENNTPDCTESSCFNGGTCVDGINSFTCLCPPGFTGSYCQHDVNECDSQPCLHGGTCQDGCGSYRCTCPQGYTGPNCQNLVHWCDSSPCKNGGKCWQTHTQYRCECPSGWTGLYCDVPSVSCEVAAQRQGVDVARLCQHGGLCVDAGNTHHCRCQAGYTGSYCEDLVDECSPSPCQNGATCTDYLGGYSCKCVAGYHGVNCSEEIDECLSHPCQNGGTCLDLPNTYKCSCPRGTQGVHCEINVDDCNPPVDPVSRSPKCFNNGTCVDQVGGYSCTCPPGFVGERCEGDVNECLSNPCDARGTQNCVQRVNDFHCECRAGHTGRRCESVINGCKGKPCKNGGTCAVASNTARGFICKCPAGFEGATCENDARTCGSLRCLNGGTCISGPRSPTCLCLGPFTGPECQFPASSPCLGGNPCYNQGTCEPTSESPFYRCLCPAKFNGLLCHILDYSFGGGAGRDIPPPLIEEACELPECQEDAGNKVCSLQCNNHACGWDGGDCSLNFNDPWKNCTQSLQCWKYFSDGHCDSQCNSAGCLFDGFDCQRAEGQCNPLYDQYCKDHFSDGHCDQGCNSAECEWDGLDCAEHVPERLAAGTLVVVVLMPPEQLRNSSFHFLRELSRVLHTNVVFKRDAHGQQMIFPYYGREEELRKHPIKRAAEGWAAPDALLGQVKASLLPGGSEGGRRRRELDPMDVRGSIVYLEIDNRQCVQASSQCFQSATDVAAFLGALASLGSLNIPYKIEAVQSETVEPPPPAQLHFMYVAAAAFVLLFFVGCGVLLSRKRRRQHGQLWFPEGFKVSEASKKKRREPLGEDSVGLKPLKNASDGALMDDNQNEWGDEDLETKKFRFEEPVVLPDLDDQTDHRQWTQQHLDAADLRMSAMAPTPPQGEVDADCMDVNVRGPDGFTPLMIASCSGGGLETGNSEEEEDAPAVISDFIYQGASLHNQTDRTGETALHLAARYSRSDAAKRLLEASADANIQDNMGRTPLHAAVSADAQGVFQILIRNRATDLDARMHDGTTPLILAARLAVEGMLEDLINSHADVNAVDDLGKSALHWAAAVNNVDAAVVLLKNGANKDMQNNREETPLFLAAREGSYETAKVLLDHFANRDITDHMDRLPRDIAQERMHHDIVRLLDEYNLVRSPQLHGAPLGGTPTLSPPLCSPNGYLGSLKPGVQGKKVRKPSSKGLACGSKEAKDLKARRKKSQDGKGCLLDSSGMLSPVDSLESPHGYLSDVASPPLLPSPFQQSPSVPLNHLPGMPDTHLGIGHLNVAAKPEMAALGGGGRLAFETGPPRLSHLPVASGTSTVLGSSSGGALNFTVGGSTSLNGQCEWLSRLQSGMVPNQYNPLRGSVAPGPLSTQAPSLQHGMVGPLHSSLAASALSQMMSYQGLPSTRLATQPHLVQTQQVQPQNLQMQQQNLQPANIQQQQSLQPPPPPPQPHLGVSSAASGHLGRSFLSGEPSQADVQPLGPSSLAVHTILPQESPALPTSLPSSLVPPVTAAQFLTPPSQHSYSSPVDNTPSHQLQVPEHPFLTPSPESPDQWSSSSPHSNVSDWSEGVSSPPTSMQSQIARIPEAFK

Results are given in words; binding and its absence hold for the method and conditions named. In cells and extracts the contact can be indirect. Some results given as binding are weak or reduced against the parent protein; the word gives no strength. Tags and fused reporters may be left off the sequences shown.

For “NOTCH1, full length (from UniProt P46531 19-2555) (receptor)”, the binding result was “binds”.

For “NOTCH1-NECD (1-1426aa)-HA (pLV3-CMV-NOTCH1-NECD (1-1426aa)-HA-Puro) (from UniProt P46531 19-1426) (domain or fragment)”, the binding entry was “binds”.
